Measurements taken from paper PMC10163288.
The other results are listed elsewhere or left out.

B1: il10ra_site1_normal_mot_HHH_b1_06914_000000280_0001_1_18_H_._HHH_b2_00168_0001_0000200021_0000001_0 (protein)
chain: SSSDEEASQELYELLREVLELLAQGNPEEAEKVLEEAEELARENNNELFLIIIEFIKRQVSSSSS
B2: il10ra_site1_normal_mot_8756ee2cf497b5429c717dfc0c0bcfd6_0001_000000186_0001_1_13_H_._HHH_b2_04770_af2_0001_0000400016_0000001_0_af2pred_0001 (protein)
chain: SSSSSSDEELKRVQELIRRAAKITDEEELREVLEEAKELAEELGNEILRVIVEFLLELMTSSSSS
B3: il10ra_site1_normal_mot_HHH_b2_06979_000000158_0001_42_57_H_._HHH_b1_07778_af2_0001_0000100005_0000002_0 (protein)
chain: SSSSDEAHRAIELFREALELLANGDPEEAQEVIEEAKELAEEAGNELLLHNIEYLERDINSSSSS
B4: il10ra_site1_sap_21_mot_HHH_b2_04680_000000215_0001_1_16_H_._HHH_b1_05281_af2_0001_0000200007_0000002_0_0001_af2pred_0001 (protein)
chain: SSSSSTEEAQRKVVKELLEEAEHIEDEHERRLVLNLARVAAKLTGNEELEELVRKVAEELSSSSS
B5: il10ra_site1_normal_mot_HHH_b2_07144_000000289_0001_1_18_H_._HHH_b1_04467_0001_0000100001_0000001_0 (protein)
chain: SSSSDAEEIYRLSREAAELLRNGNPEEAREVVEEALRLAEEAGNATFVFAARHLLEDIEKSSSSS
B6: il10ra_site1_sap_26_mot_65b8060e20531850bca9f2e11f97d954_0001_af2_000000137_0001_17_31_H_._HHH_b2_02577_0001_0000200010_0000001_0_0001 (protein)
chain: SSSSDLEEIWELIRKAMELARQGNLEEAERLIREALEIAEEAGNRAMQHQLKMVLEDLEERSSSS
B7: il10ra_site1_sap_24_mot_HHH_b1_06816_000000239_0001_1_19_H_._HHH_b1_06343_0001_0000100003_0000003_0_0001_af2pred_0001 (protein)
chain: SSSSSEVVQEVIRLIRKALELLANGNPEEAEEVLKEAKELAEEGNNLTLKFSIEAAERAINSSSS
B8: il10ra_site1_normal_mot_HHH_b2_03328_af2_000000127_0001_1_19_H_._HHH_b2_04646_af2_0001_0000100005_0000002_0_af2pred_0001 (protein)
chain: SSSSDEEEERLRELEEQRERAKEEGDEEKFARLAVELSRLLAQAGNYEEARRLAKELARISSSSS
B9: il10ra_site1_normal_mot_HHH_b1_07527_000000076_0001_1_15_H_._HHH_b2_04719_af2_0001_0000100001_0000001_0_af2pred_0001 (protein)
chain: SSSSSSSEAEEIVRLIREALRIEDEEEAREILEEALELAEKANNFAAFFAAEHLLKILSSSSSSS
B10: il10ra_site1_sap_26_mot_HHH_b1_05185_000000011_0001_22_39_H_._HHH_b1_08225_0002_0000200012_0000001_0_0001 (protein)
chain: SSSSDEDFELARRFIELVIELLRRGNKEEAQEVLKELEELAEETNNPILRHLLELLQRQLKSSSS
B11: il10ra_site1_sap_12_mot_HHH_b1_02062_000000185_0001_1_20_H_._HHH_b2_04276_0001_0000100009_0000002_0_0001 (protein)
chain: SSSSSDTDEAFRRVLELMEEARHVSEEEAEKLLEEAKELAEEANSEYLLRAVEYLERDETSSSSS
B12: il10ra_site1_normal_mot_HHH_b1_01879_000000050_0001_1_18_H_._HHH_b2_02257_0001_0000300009_0000002_0_af2pred_dldesign_0_af2pred (protein)
chain: SSSSDPEVDKAAFEAKVKAYQLGDEETLRRLAELSHQVKLTKDPELKKELYELAKSLLDEISSSS
B13: il10ra_site1_sap_17_mot_HHH_b2_00475_000000002_0001_44_57_H_._HHH_b2_01636_0001_0000300020_0000001_0_0001 (protein)
chain: DEEELERLLREAGVPPELIRLVRLSFKRLKEQGSPPETVLRALLMVVRAMGDPRASEVLEELLER
B14: il10ra_site1_normal_mot_HHH_b2_02337_000000026_0001_38_52_H_._HHH_b1_01460_af2_0001_0000100008_0000002_0 (protein)
chain: SSSSDEEEELKRLIEELEELLERNDEERFARVAQRASQLALESGNAELLKVIWELVQRLRSSSSS
B15: il10ra_site1_normal_mot_HHH_b1_02397_af2_000000085_0001_39_57_H_._HHH_b1_03194_0001_0000100004_0000002_0 (protein)
chain: SSSSSSDVEELLERLEELLEEGNHEEAARLLQEALRHAFRNSDPELLKELHEFAKRLASSSSSSS
B16: il10ra_site1_normal_mot_HHH_b1_07211_af2_000000161_0001_24_40_H_._HHH_b2_07834_af2_0001_0000500039_0000001_0 (protein)
chain: SSSSDEEHRELAELLREIMEAYRRGDPEEVEELLELLEELAKKLNDEQARWLVELFREALSSSSS
B17: il10ra_site1_sap_26_mot_HHH_b2_06864_af2_000000190_0001_1_20_H_._HHH_b2_05072_0001_0000200020_0000001_0_0001 (protein)
chain: SSSSSSEEVEELLKEAEELYERGDHEKVIEVLQRAVRAAYELKDPELLQAVWRLVHELVSSSSSS
B18: il10ra_site1_sap_26_mot_HHH_b2_03220_af2_000000223_0001_23_40_H_._HHH_b1_06492_af2_0001_0000400018_0000001_0_0001 (protein)
chain: SSSSDAEERARELLEEAEELLEEGDRERFARVVQEALRVAFQASDEEILQALWRLMKSLQSSSSS
B19: il10ra_site1_normal_mot_HHH_b1_07835_af2_000000063_0001_1_16_H_._HHH_b2_02304_0001_0000300026_0000001_1_af2pred_0001 (protein)
chain: SSSSDEEIRERIEELLEEAKHIENEREVAELLAEASRLALRLRDPELARLVDEVAIEINLSSSSS
B20: il10ra_site1_sap_20_mot_HHH_b2_00479_000000091_0001_1_12_H_._HHH_b1_00442_0001_0000200009_0000002_0_0001_af2pred_0001 (protein)
chain: SSSSSRDERALKRLKRSAELAAERGDPKAAKIALRFAKLLAELLNDEELLREIEKLLEELSSSSS
B21: il10ra_site1_sap_30_mot_HHH_b2_03590_000000030_0001_43_56_H_._HHH_b1_00902_0001_0000400038_0000001_0_0001_af2pred_0001 (protein)
chain: SSSSSDEELLRLAIRFAKFLEEEGDPEAAKFILEAAIELARKAGDEELLEEAERVLEELDSSSSS
B22: il10ra_site1_normal_mot_HHH_b2_00800_af2_000000047_0001_1_20_H_._HHH_b1_00120_0001_0000100007_0000001_0 (protein)
chain: SSSSQEEYEFVRKVIEEVLELIRKGDPEEAERLLEEAEQFLRELGDELRLLQIEHLLRLLRSSSS
B23: il10ra_site1_sap_10_mot_21555af6df39fbf105a98f94538c59b3_0001_af2_000000275_0001_17_30_H_._HHH_b2_01902_0001_0000400011_0000002_0_0001_af2pred_0001 (protein)
chain: SSSSSDEEAVRLFLEAAKLIEDPERRKRALRFAEFLAKEANNPELEKLVEEVKEELEEKSSSSSS
B24: il10ra_site1_sap_25_mot_HHH_b1_02492_000000051_0001_1_21_H_._HHH_b2_03821_0001_0000300023_0000001_0_0001 (protein)
chain: SSSSSEELYKLAEEALELLHQGDREEAERILEEAEEIAKERNDRVLLIVIRFLLRDVEASSSSSS
B25: il10ra_site1_sap_13_mot_HHH_b2_01447_af2_000000258_0001_1_20_H_._HHH_b1_00942_0001_0000300030_0000001_0_0001 (protein)
chain: SSSSDERYEEVKRLIEEIIRLVREGNPEEAEKLLERLEELAEQFNNPVLRFVVELLERAINSSSS
B26: il10ra_site1_sap_24_mot_HHH_b2_03631_af2_000000003_0001_42_56_H_._934a834d9b8b770824478def2ff2f329_0001_af2_0001_0000300012_0000001_0_0001 (protein)
chain: DEDRRRMELLEEAVSTSQEAARLLRRLLEAMFRGDPELAKELVEQLVELLGLPPEDEELLEESVR
B27: il10ra_site1_normal_mot_513c16ae44941e68898e0f7c259e5a28_0001_1_000000056_0001_35_50_H_._ems_p1-15H-GBL-16H-GABBL-16H_0062_0001_0001_0001_0001_0000400006_000000 … (protein)
chain: SSSSSSVEELAEEARELAKERGDEQAEDLVRFLERAMEQGILDPRVAKESLEALIRLLEESSSSS
B28: il10ra_site1_sap_35_mot_65b8060e20531850bca9f2e11f97d954_0001_af2_000000137_0001_17_31_H_._HHH_b2_07147_af2_0001_0000400021_0000002_0_0001 (protein)
chain: SSSSSAEEEIERLIREAEELLERGNPEEALRLVMEALRLAFQASNAELLRELWRLAKRIASSSSS
B29: il10ra_site1_sap_9_mot_HHH_b2_00943_af2_000000149_0001_1_17_H_._HHH_b1_00248_0001_0000300021_0000002_0_0001 (protein)
chain: SSSSSSLTEAFERVKELLEEAAQIEDDEEVRELLEEAEKAAEEVNNEYLLRAIEYLKRILSSSSS
B30: il10ra_site1_sap_24_mot_HHH_b2_04001_000000102_0001_19_36_H_._HHH_b2_02525_af2_0001_0000200010_0000002_0_0001_af2pred_dldesign_0_af2pred (protein)
chain: SSSSSSPLEKEVERLLEEAKKEEDEQKFAELLRKAMKLAYEAKNEELFKKVVDLAAARLESSSSS
B31: il10ra_site1_normal_mot_HHH_b2_06857_af2_000000179_0001_42_54_H_._HHH_b1_03771_af2_0001_0000300018_0000001_0 (protein)
chain: SSSSTEELERLYELLRRIAELHSEGNPEEAKELIEEAEELAERLGNELVRFQLEFLHRQVDSSSS
B32: il10ra_site1_normal_mot_HHH_b2_08186_000000021_0001_43_56_H_._HHH_b1_04390_0001_0000200019_0000001_0 (protein)
chain: SSSSSSSLSELALRALQLAYKIPDPEESEELLQLIWEALKKGDEEELREIVERLEEELSSSSSSS
B33: il10ra_site1_sap_21_mot_HHH_b2_08004_000000101_0001_1_17_H_._HHH_b1_07228_af2_0001_0000200011_0000001_0_0001 (protein)
chain: SSSSDLEEEIERLREELREAEERGDEELALRLLFELIQLAYHTNDEELLRELWEAVKRLFSSSSS
B34: il10ra_site1_sap_15_mot_HHH_b1_01874_000000035_0001_1_20_H_._HHH_b1_07861_0001_0000100004_0000002_0_0001_af2pred_dldesign_0_af2pred (protein)
chain: SSSSSPELEEIEALIKELKALEDPDAVYLAEKLKEAYERTGDPRLLTMARNLLEDARARVESSSS
B35: il10ra_site1_normal_mot_ems_3hM_3349_af2_000000150_0001_25_42_H_._b4be136d7f8a4bb058aae31a77d31857_0001_0001_0000200005_0000001_0 (protein)
chain: SLEELVEELLEELGVPPEEIRLVKLALRQQAEQNGDPEEALEALARALRLMGDPKVVKVLEEVLK
B36: il10ra_site1_sap_14_mot_e0dbc3348a3fcd95f014b317fc0bf3a6_0001_000000040_0001_16_30_H_._75bdb2aef64737852ff07fad4f0fc64e_0001_0001_0000100001_0000001_0_0001 (protein)
chain: SSSSSEEERLIELLEELLHAYVEGDREEAQELVEEATELAEKLGNRAARWSLRAIERALKSSSSS
B37: il10ra_site1_normal_mot_HHH_b2_05323_000000159_0001_1_18_H_._HHH_b1_01966_0001_0000200024_0000001_0 (protein)
chain: SSSSSDNEEALELSLEAFRLLLRGDPEQAREVLEEALELAERAGNERLARIIEDQLRILSSSSSS

Target: il10ra, Q13651
Assay: yeast display titration

Apparent Kd, inactive:
B1 no binding seen, B2 no binding seen, B3 no binding seen, B4 no binding seen, B5 no binding seen, B6 no binding seen, B7 no binding seen, B8 no binding seen, B9 no binding seen, B10 no binding seen, B11 no binding seen, B12 no binding seen, B13 no binding seen, B14 no binding seen, B15 no binding seen, B16 no binding seen, B17 no binding seen, B18 no binding seen, B19 no binding seen, B20 no binding seen, B21 no binding seen, B22 no binding seen, B23 no binding seen, B24 no binding seen, B25 no binding seen, B26 no binding seen, B27 no binding seen, B28 no binding seen, B29 no binding seen, B30 no binding seen, B31 no binding seen, B32 no binding seen, B33 no binding seen, B34 no binding seen, B35 no binding seen, B36 no binding seen, B37 > 4.72 nM
